Results from the supplement of paper PMC12009310.
Counter-ions that a name gives are not always drawn. ± gives the standard deviation of the averaged measurements. This is one part of the list. Plates or batches differ in their baseline, so values are only roughly comparable.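 The cells are a mouse kidney inner medullary collecting duct line, silenced either for the ciliary gene Rpgrip1l or with a non-targeting control siRNA.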

Each compound was assayed on mIMCD3 (assay: robust z score of cilia incidence (% cells with single cilium) vs plate controls; higher = more ciliated cells (rescue of cilia loss)). Conditions: 10 µM; 48 h; siRNA: siRpgrip1l.

Structure (SMILES) | robust z score of cilia incidence
CN(Cc1cnc2nc(N)nc(N)c2n1)c1ccc(C(=O)N[C@@H](CCC(=O)O)C(=O)O)cc1 [Methotrexate] | -12.4 ± 1.3
O=C(NCCCCN1CCN(c2cccc(Cl)c2Cl)CC1)c1ccc2c(c1)Cc1ccccc1-2 | -31.4 ± 3.2
CCCC[P+](CCCC)(CCCC)Cc1ccc(NC(=O)C(Cc2ccc3ccccc3c2)NC(=NC2CCCCC2)NC2CCCCC2)cc1 (stereo not drawn) | -16.2 ± 14
O=c1cc(N2CCNCC2)oc2c(-c3ccccc3)cccc12 | -13.6 ± 6.1
COc1ccccc1N1CCN(CCCCNC(=O)c2ccc(-c3ccc(C(C)=O)cc3)cc2)CC1 | -28.4 ± 1.9
O=C(NCCCN1CCCCCC1)C(c1ccccc1)C1CCCCC1 (stereo not drawn) | -11.3 ± 3.1
O=C(Nc1ccncc1)c1cc([N+](=O)[O-])ccc1Cl | -12 ± 8.4
O=C1CC2(CCCC2)CC(=O)N1CCNCC1COc2ccccc2O1 (stereo not drawn) | -37.7 ± 22
CC(CCCCC(=O)Nc1ccc(C(F)(F)F)cc1)NCCc1cnc[nH]1 (stereo not drawn) [HTMT dimaleate] | -14.5 ± 7.7
Cc1nnc(-c2ccc3occ(-c4ccc([S+](C)[O-])cc4)c3c2)o1 (stereo not drawn) | -10.8 ± 8.4
CCOC(=O)[C@H](CCc1ccccc1)N[C@H]1CCc2ccccc2N(CC(=O)O)C1=O [Benazepril hydrochloride] | -14.3 ± 0.58
O=c1[nH]c2cc(Cl)ccc2c(O)c1-c1cccc(Oc2ccccc2)c1 | -6.65 ± 0.37
COc1ccccc1C1(O)CCN(CCCn2c3ccccc3c3ccccc32)CC1 [NNC 05-2090 hydrochloride] | -29 ± 6.3
NS(=O)(=O)Cc1noc2ccccc12 [Zonisamide] | -11 ± 0.81
COc1cc(/C=C(\C#N)C(N)=O)cc(CSc2nc3ccccc3s2)c1O | -13.2 ± 9.9
COc1ccc(C2CC(c3c(O)cc(C)oc3=O)=NCCS2)c(OC)c1 (stereo not drawn) | -17.8 ± 3.5
O=C(O)C1CCCN(CCC=C(c2ccccc2)c2ccccc2)C1 (stereo not drawn) | -15.4 ± 3.2
CCS(=O)(=O)N1CCC[C@@H]2CN3CCc4cc(OC)ccc4[C@@H]3C[C@@H]21 | -15.9 ± 3.4
O=C(COc1cccc2c(=O)[nH]ccc12)c1ccccc1 | -10.3 ± 1.8

Structure (SMILES) | robust z score of cilia incidence
CCCCCCC(=O)OC1CC(C)(C)NC(C)(C)C1 [TMPH hydrochloride] | -27 ± 15
C=C1C(=O)O[C@@H]2/C=C(\C)CC/C=C(\C)CC[C@@H]12 [Costunolide] | -16.1 ± 1.6
CCN(CC)CCOC(=O)C1(c2ccc([N+](=O)[O-])cc2)CCCC1 [Nitrocaramiphen hydrochloride] | -31.9 ± 12
CC(Cc1ccc(O)c(O)c1)(NN)C(=O)O [(S)-(-)-Carbidopa] | -1.89 ± 3.8
CS(=O)(=O)c1ccc(-c2cc(Br)sc2-c2ccc(F)cc2)cc1 | -347 ± 230
CC(=O)O[C@@H]1C[C@H]2C(C)(C)C(=O)C=C[C@]2(C)[C@H]2CC[C@@]3(C)[C@H](c4ccoc4)OC(=O)[C@H]4O[C@]43[C@@]21C [Gedunin] | -15.2 ± 2.4
COc1ccc2[nH]c(-c3ccccc3)c(CCNC(C)=O)c2c1 [2-Phenylmelatonin] | -10.9 ± 2.7
Nc1nc(-c2ccc(Cl)c(Cl)c2)c(-c2ccncc2)s1 [CGH 2466 dihydrochloride] | -17.3 ± 12
COc1ccc(CCCOC(Cn2ccnc2)c2ccc(OC)cc2)cc1 (stereo not drawn) | -29.2 ± 6.2
C[C@H](NC(=O)/C(C#N)=C/c1ccc(O)c(O)c1)c1ccccc1 [Tyrphostin B44, (+) enantiomer] | -6.86 ± 3.4
CCCCC#Cc1nc(NC)c2ncn([C@@H]3O[C@H](CO)[C@@H](O)[C@H]3O)c2n1 | -111 ± 86
CCOc1cc(CC(=O)N[C@@H](CC(C)C)c2ccccc2N2CCCCC2)ccc1C(=O)O [Repaglinide] | -8.31 ± 4.5
O=C1NC(=O)c2c1c(-c1ccccc1)cc1[nH]c3ccc(O)cc3c21 | -4.42 ± 4.6
C1COC(NC(C2CC2)C2CC2)=N1 [Rilmenidine hemifumarate] | -6.59 ± 0.67
COc1ccc(OC)c2c(=S)c3ccccc3[nH]c12 | -13.7 ± 8.8
CNCCC(Oc1ccc(C(F)(F)F)cc1)c1ccccc1 (stereo not drawn) [Fluoxetine hydrochloride] | -25.5 ± 5.6
NS(=O)(=O)c1nn2cc(-c3ccccc3)nc2s1 | -18.01 ± 0.047
Oc1c2ccccc2c2c3c(cccc13)N=N2 | -304 ± 170
COCCNC(=O)COc1ccc(OCCNC[C@H](O)COc2ccccc2)cc1 [ZD 7114 hydrochloride] | -11.3 ± 4.3

2 neighbouring records already listed, quoted:
Structure (SMILES) | robust z score of cilia incidence
CCOc1cc(CC(=O)N[C@@H](CC(C)C)c2ccccc2N2CCCCC2)ccc1C(=O)O [Repaglinide] | -8.31 ± 4.5
O=C1NC(=O)c2c1c(-c1ccccc1)cc1[nH]c3ccc(O)cc3c21 | -4.42 ± 4.6
